The values that follow come from US12161695B2 (priority 2018, dated 2024).

Common to all, as to type: cell-based
The test system of assay [1] is iGABAARII
In words: whole-cell patch-clamp single-channel currents in β cells of intact human islets, iGABAARII
As to conditions: ND donors, room temperature, kinetic model fit. From the text:
(§1) Human islets were generously provided by the Nordic Network for Clinical Islet Transplantation, supported by EXODIAB and the Juvenile Diabetes Research Foundation. All procedures were approved by the regional ethics committee in Uppsala and informed consent obtained by appropriate measures from donors or their relatives. […]
(§2) The whole-cell patch-clamp configuration was obtained on intact islets using the blind patch-clamp technique (Hamill et al., 1981; Jin et al., 2011; Neher and Sakmann, 1976) and single-channel currents were recorded at room temperature (20-22° C.) or at 34° C. […] The access resistance was monitored and if it changed by more than 25%, the recording was rejected. The single-channel parameters (amplitude, frequency/opening rate, conductance, open probability Po, mean current Imean and mean open time To) were analyzed by Channel3 (Nicholas Laver, Derek Laver, the University of Newcastle, Australia) and Clampfit 10.5 (Molecular Devices, USA). […]
In general terms: In patch-clamp work, channel activity is measured electrically.

The subject of assay [2] is iGABAARs in human pancreatic islet β cells. As to conditions: human islets vs neuronal models.
Description: as §1, §2

Assay [3] deals with iGABAARI. In words: whole-cell patch-clamp single-channel currents in β cells of intact human islets, iGABAARI. To be noted: ND donors, room temperature, kinetic model fit.
Description: as §1, §2

Regarding `NCCCC(=O)O` [GABA, gamma-aminobutyric acid], the “apparent affinity for GABA (Ka)” value was found to be 65 nM in assay [1] and 20 nM in assay [3]. Moreover, the “affinity for GABA relative to models for neuronal GABAAR-mediated currents” value in assay [2] was 100 fold.
